Drawing on PMC10978537, this text covers binding for 2 substances.

Protein sequences, listed by entry. Tags and fused reporters are not part of them. Residues count along the entry.
UniProt Q16665: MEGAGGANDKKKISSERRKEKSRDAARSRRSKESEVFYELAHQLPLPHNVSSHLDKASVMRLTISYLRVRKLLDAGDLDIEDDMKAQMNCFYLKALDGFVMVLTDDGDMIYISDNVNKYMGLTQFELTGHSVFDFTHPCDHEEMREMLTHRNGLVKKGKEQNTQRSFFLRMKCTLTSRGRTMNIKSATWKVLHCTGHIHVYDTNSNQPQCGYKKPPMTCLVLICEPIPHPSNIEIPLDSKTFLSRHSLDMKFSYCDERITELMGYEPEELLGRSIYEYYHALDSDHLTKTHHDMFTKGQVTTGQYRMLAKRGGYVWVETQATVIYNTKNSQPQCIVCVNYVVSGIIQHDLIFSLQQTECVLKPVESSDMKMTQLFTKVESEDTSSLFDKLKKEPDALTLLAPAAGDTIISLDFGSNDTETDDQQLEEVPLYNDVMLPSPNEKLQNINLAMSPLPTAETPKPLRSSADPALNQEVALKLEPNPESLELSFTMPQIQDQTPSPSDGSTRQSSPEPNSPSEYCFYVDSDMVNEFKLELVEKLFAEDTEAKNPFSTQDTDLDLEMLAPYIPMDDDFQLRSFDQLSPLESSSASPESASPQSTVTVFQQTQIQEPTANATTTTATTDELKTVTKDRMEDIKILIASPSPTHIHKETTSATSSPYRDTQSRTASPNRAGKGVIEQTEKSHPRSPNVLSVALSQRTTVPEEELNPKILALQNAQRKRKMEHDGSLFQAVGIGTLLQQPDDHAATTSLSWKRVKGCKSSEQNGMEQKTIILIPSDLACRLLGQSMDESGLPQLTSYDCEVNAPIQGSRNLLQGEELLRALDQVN
UniProt Q15118, residues 29-436: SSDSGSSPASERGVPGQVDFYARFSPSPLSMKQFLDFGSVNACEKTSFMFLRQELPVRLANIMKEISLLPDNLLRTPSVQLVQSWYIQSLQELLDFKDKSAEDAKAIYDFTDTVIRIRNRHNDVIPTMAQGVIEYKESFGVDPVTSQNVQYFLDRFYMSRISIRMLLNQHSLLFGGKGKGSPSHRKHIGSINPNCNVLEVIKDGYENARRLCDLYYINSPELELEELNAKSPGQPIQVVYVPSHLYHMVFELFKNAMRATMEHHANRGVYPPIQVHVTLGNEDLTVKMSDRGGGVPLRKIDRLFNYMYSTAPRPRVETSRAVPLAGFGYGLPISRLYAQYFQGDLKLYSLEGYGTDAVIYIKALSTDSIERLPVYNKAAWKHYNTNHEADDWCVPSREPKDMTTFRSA

These are yes or no findings as the source states them, for the method shown. Binding seen in cells or lysates may run through a third protein. Some entries that bind do so weakly or less than the wild type.

Test [1] has as its target HIF-1α, exogenous (HIF-1α expression plasmid in 293T cells) (UniProt Q16665). The test can be described thus: co-IP; PDK1 expression vector and HIF-1α expression plasmid transiently transfected together into 293T cells.
Test [2] addresses Hypoxia-inducible factor 1α (HIF-1α), endogenous (human (endogenous in BT-549, MCF7, HEK-293T)) (UniProt Q16665). Put plainly: co-IP; endogenous proteins; BT-549-NC/-KO and MCF7-NC/-sh-PDK1 cells pretreated with CoCl2 for 6 h; lysates incubated with antibody-coated magnetic beads 1 h at room temperature, washed with PBST.

Turning to “PDK1, exogenous (PDK1 expression vector in 293T cells) (from UniProt Q15118 29-436) (enzyme)”, the binding result in test [1] is on record as “binds”. Turning to “Pyruvate dehydrogenase kinase 1 (PDK1), endogenous (from UniProt Q15118 29-436) (enzyme)”, in test [2], the binding entry is “binds”.
